Results deposited as PubChem BioAssay AID743121 (NCATS, 2013).
Screen: 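Knock-downs that sensitise breast cancer cells to camptothecin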 (primary screen). Cells: MDA-MB-231 cells, a human breast cancer line. Reagents: single siRNA against human genes, 20 nM siRNA (0.8 pmol per well). Timing: 120 h (drug added 48 h after transfection, read 72 h later). Conditions: camptothecin 20 nM (about EC30) for 72 h; vehicle 0.1% DMSO in parallel plates. Read-out: 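CellTiter-Glo ATP signal, scaled to control siRNA as percent viability; sensitisation given as log2 of untreated divided by camptothecin-treated viability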. Direction: log2 vehicle/camptothecin viability: higher = stronger sensitisation to camptothecin; viability with camptothecin: higher = more viable cells. Units: viability with camptothecin in % of control. Call rule: 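Active genes have an RSA gene-level p-value below 0.001, computed from the ratios of their separate siRNAs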.
The whole screen tested about 26,000 reagents; this is an unselected part. 167 of all reagents (0.63%) were called active. 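Calls are per gene from RSA p-values that are not deposited; an individual active-marked siRNA can sensitise only weakly.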 Unmarked entries are inactive. The numbers tell different reagents against one gene apart. Not all columns of the deposit are shown.

PPP1R3B (GeneID 79660) #1
- log2 vehicle/camptothecin viability: -0.163
- viability with camptothecin: 115

PPP1R3B (GeneID 79660) #2
- log2 vehicle/camptothecin viability: -0.353
- viability with camptothecin: 116

PPP1R3B (GeneID 79660) #3
- log2 vehicle/camptothecin viability: 0.48
- viability with camptothecin: 42.2

PPP1R3B (GeneID 79660) #4
- log2 vehicle/camptothecin viability: -0.0244
- viability with camptothecin: 60.1

SERPINB6 (GeneID 5269) #1
- log2 vehicle/camptothecin viability: -0.397
- viability with camptothecin: 80.2

SERPINB6 (GeneID 5269) #2
- log2 vehicle/camptothecin viability: 0.0642
- viability with camptothecin: 63.3

SERPINB6 (GeneID 5269) #3
- log2 vehicle/camptothecin viability: -0.0158
- viability with camptothecin: 54.2

SERPINB6 (GeneID 5269) #4
- log2 vehicle/camptothecin viability: 1.25
- viability with camptothecin: 6.83

Next part (2 carried over from the part before).
SERPINB6 (GeneID 5269) #3
- log2 vehicle/camptothecin viability: -0.0158
- viability with camptothecin: 54.2

SERPINB6 (GeneID 5269) #4
- log2 vehicle/camptothecin viability: 1.25
- viability with camptothecin: 6.83

PRKCB (GeneID 5579) #1
- log2 vehicle/camptothecin viability: -0.428
- viability with camptothecin: 36.2

PRKCB (GeneID 5579) #2
- log2 vehicle/camptothecin viability: 0.224
- viability with camptothecin: 78.7

PRKCB (GeneID 5579) #3
- log2 vehicle/camptothecin viability: -0.284
- viability with camptothecin: 89.6

PRKCB (GeneID 5579) #4
- log2 vehicle/camptothecin viability: -0.375
- viability with camptothecin: 117

LIM2 (GeneID 3982) #1
- log2 vehicle/camptothecin viability: -0.203
- viability with camptothecin: 52.9

LIM2 (GeneID 3982) #2
- log2 vehicle/camptothecin viability: -0.149
- viability with camptothecin: 111

LIM2 (GeneID 3982) #3
- log2 vehicle/camptothecin viability: 0.0414
- viability with camptothecin: 92.6
